## Primary screen of a compound library

Data taken from ChEMBL document CHEMBL3988442, “University of Dundee, Small-Polar-MMV Screening Library” (2021).

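Viability assay of Plasmodium falciparum sporozoites; the read-out is not stated. The concentration is filed as 10 mM, unlikely as a test dose, so the dose is not known. The record gives no direction; compounds that gave an IC50 in retests scored well above the rest, so higher reads as lower viability. Strong results were mostly tested again. Of about 34,000 compounds tested this way, about 280 (0.84%) reached 50% or more in at least one test.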

Results are given as percent effect. How 0% and 100% were set is not recorded. Most values in the screen are low, and negative values occur. Compounds were drawn at random from those tested, without regard to their results. Two or more numbers in one place are separate tests of the same structure; such repeats can differ widely.

| # | Compound | Percent Effect |
|---|---|---|
| 1 | `CCN1CCN(c2ccc(CNC(=O)c3cc(C)on3)cn2)CC1` | 4.601% |
| 2 | `CCCc1cc(C(=O)N2CCCC(n3ccnc3C)C2)[nH]n1` (centres unmarked) | 12.58% |
| 3 | `Cc1cnc(N2CCC3(CCCN3C(=O)c3ccco3)CC2)nc1.O=C(O)C(F)(F)F` | 14.27% |
| 4 | `Cc1ccccc1S(=O)(=O)N1CCCCC1c1ccn[nH]1` (centres unmarked) | -2.591% |
| 5 | `NC(=O)C1CN(C(=O)Nc2ccccc2SC(F)(F)F)CCO1` (centres unmarked) | -0.4177% |
| 6 | `c1cnn(C2CN(Cc3noc(C4CC4)n3)C2)c1` | -12.1% |
| 7 | `O=C(NC1CCS(=O)(=O)C1)N1CCN(c2cnccn2)CC1` (centres unmarked) | 1.253% |
| 8 | `Cc1ccc(Br)cc1NC(=O)NCC(O)CO` (centres unmarked) | -4.211% |
| 9 | `CC(C)c1nc(C2CCCN(c3nccc(C(F)(F)F)n3)C2)no1` (centres unmarked) | -11.14% |
| 10 | `Cc1ccc(NC2CCN(C(=O)c3ccc(C#N)cc3)CC2)nn1` | 9.562% |
| 11 | `O=C(O)C(F)(F)F.[H][C@]12CC[C@@]3(N=C(C)N(CC(C)C)C3=O)[C@@]1([H])CN(CC(=O)N(C)C)C2` | 12.94% |
| 12 | `COC1CCCN(C(=O)Nc2nc(C)n(C)n2)C1` (centres unmarked) | -4.936% |
| 13 | `Cc1noc2nc3c(c(C(=O)/N=c4\[nH]nc(C(C)C)s4)c12)CCC3` | -5.586% |
| 14 | `N#Cc1cccc(NC(=O)CCn2nc(-c3cccs3)oc2=O)c1` | -7.079% |
| 15 | `Cc1ncc2c(n1)CN(CC(=O)NCCOc1ccccc1)CC2` | 2.603% |
| 16 | `O=C1COC2(CCN(Cc3ccccn3)CC2)CN1CC1CC1` | 1.453% |
| 17 | `Cc1ccc(C(=O)Nc2ccccc2F)n1C` | 12.91% |
| 18 | `O=C(NCCCSc1ccc(F)cc1)C1CCc2cn[nH]c2C1` (centres unmarked) | 3.781% |
| 19 | `CC(C)Oc1ncccc1CNC(=O)c1ccco1` | -4.412% |
| 20 | `CNC(=O)CN1CCC(NC(=O)Cc2ccccc2OC(C)C)CC1` | -13.46% |
| 21 | `COc1cc(N2CC[C@@H](OC)[C@@H]2Cc2cnn(C)c2)ncn1` | 0.9025% |
| 22 | `Cc1cnc(CN2CCCC2c2noc(C3CC3)n2)cn1` (centres unmarked) | 1.949% |
| 23 | `CC(C)c1nc(O)c2nnn(C[C@@H]3CCCN(Cc4cccs4)C3)c2n1` | -1.407% |
| 24 | `COc1ccccc1NC(=O)NCC(O)c1ccc(F)cc1F` (centres unmarked) | 5.543% |
| 25 | `Cn1cc(Cl)cc1C(=O)N1CCCN(Cc2cccs2)CC1` | -1.154% |
| 26 | `CCCN1CCC(CNC(=O)C2(c3ccccc3)CCC2)C1` (centres unmarked) | -0.9323% |
| 27 | `Cl.Cl.c1cncc(COC[C@@H]2CCC[C@@]23CNCCO3)c1` | 18.07% |
| 28 | `CN(Cc1ccc(F)cc1)CC1(O)CCN(C(=O)c2ccccn2)C1` (centres unmarked) | 1.532% |
| 29 | `Cc1ccc(CN2CCCn3c(nc(CN4CCCC4)cc3=O)C2)s1.O=C(O)C(F)(F)F.O=C(O)C(F)(F)F` | -4.362% |
| 30 | `O=C(O)C(F)(F)F.O=C(O)C(F)(F)F.O=C(O)C(F)(F)F.[H][C@@]12CO[C@@H](CN3CCN(C)CC3)[C@]1([H])CCN(Cc1ccc(C)cc1)C2` | 2.368% |
| 31 | `CC1c2ncc(CNC(=O)C3CC3)n2CCN1Cc1cccnc1.O=C(O)C(F)(F)F.O=C(O)C(F)(F)F` (centres unmarked) | 9.612% |
| 32 | `O=C(NCCc1ccccn1)C1CC(=O)N(CC(F)(F)F)C1` (centres unmarked) | -2.447% |
| 33 | `CC(C)c1cc(N2CCC(NS(C)(=O)=O)C2)nc(C(C)C)n1` (centres unmarked) | -14.19% |
| 34 | `[H][C@@]12CS(=O)(=O)C[C@]1([H])NCCN2C(=O)COc1cccnc1C` | -2.999% |
| 35 | `CN(Cc1ccco1)C(=O)CN1CCN(C)c2ccccc2C1` | -4.353% |
| 36 | `COCCc1noc(CN2CCCC2c2c(C)nn(C)c2C)n1` (centres unmarked) | -16.48% & -24.42% & -12.5% |
| 37 | `CCN(CCOc1ccc(F)cc1)C(=O)c1ccncc1Cl` | -5.089% |
| 38 | `COCC1CC2(CCN(CC3CC3)CC2)CN1Cc1ccccn1.O=C(O)C(F)(F)F.O=C(O)C(F)(F)F` (centres unmarked) | 13.66% |
| 39 | `CCN1C(=O)C(c2ccccc2)CC12CCN(S(C)(=O)=O)CC2` (centres unmarked) | -4.277% |
| 40 | `CC(CNCc1ccncc1)Oc1ccccn1.Cl` (centres unmarked) | 7.895% |
| 41 | `c1ncc2c(n1)CN(Cc1nc(-c3ccc4c(c3)OCO4)no1)CC2` | -3.004% |
| 42 | `Cc1cnc(C2CCCN(C(=O)c3c[nH]c(=O)[nH]c3=O)C2)s1` (centres unmarked) | -14.56% |
| 43 | `O=C(O)C(F)(F)F.[H][C@@]12CCN(c3ccccc3)C[C@@]1([H])O[C@@H](C(=O)NCCOC)C2` | 6.579% |
| 44 | `O=C(c1cccnc1)N1CCC2(CC1)CN(c1ccccn1)CCO2` | 4.637% |
| 45 | `CCOCCN1CCN(C(C)C(=O)Nc2ccnn2C(C)C)CC1` (centres unmarked) | 0.355% |
| 46 | `CN(C)C(=O)NCC1CC2(CO1)CN(c1nncs1)C2` (centres unmarked) | 9.107% |
| 47 | `CCc1noc(CN(CC)C(=O)CC2C(=O)NCCN2CC(C)(C)C)n1` (centres unmarked) | -12% |
| 48 | `COCc1nn(Cc2ccc(Cl)s2)c(=O)o1` | -19.52% |
| 49 | `CCn1cnnc1CNC(=O)N1CCN(Cc2ccco2)CC1` | 4.864% |
| 50 | `CCc1nc(N2CCC3(CC2)[C@H](O)C[C@@H]3O)ncc1C` | 1.053% |
| 51 | `CCn1nc(C)c2nc(C(C)C)nc(NCCCn3cccn3)c21` | 0.1812% & -4.669% |
| 52 | `Cc1nccc(-c2cccc(NCC(=O)N3CCc4sccc4C3)c2)n1` | 4.482% |
| 53 | `CC(C)CNC(=O)CNC(=O)NC(C)COc1ccccc1F` (centres unmarked) | 1.522% |
| 54 | `OCCN1CCN(Cc2cn(-c3ccccc3)nn2)CC1` | -14.82% |
| 55 | `CC1CN(c2ccccc2Cl)C(=O)CN1C(=O)c1c[nH]c(=O)c(Cl)c1` (centres unmarked) | 1.644% |
| 56 | `Cl.Nc1cnn(CC(=O)N2CCCCC2)c1` | 2.824% |
| 57 | `O=C(Nc1cc(C2CCOCC2)[nH]n1)c1cscn1` | 17.19% |
| 58 | `[H][C@@]12CCCO[C@]1([H])[C@H](OCC1CC1)CN2C(=O)c1occc1C` | -0.6188% |
| 59 | `Cc1nsc(NCCNS(=O)(=O)c2ccccc2)n1` | -15.17% & -15.27% |
| 60 | `O=C(O)C(F)(F)F.c1cnn(Cc2cn3c(n2)CN(Cc2nccs2)CC3)c1` | -1.453% |
| 61 | `O=C(c1cc2cc(F)ccc2[nH]1)N1CCCCC1Cn1cccn1` (centres unmarked) | -4.007% |

3 of the entries, repeated:

Compound,Percent Effect
CC1CN(c2ccccc2Cl)C(=O)CN1C(=O)c1c[nH]c(=O)c(Cl)c1 (centres unmarked),1.644%
CC(C)Oc1ncccc1CNC(=O)c1ccco1,-4.412%
c1cnn(C2CN(Cc3noc(C4CC4)n3)C2)c1,-12.1%